Data as given in PubChem BioAssay AID743121 (NCATS, 2013)
Purpose: 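Genes whose silencing strengthens cell killing by camptothecin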 (primary screen). Cells: MDA-MB-231 cells, a human breast cancer line. Reagents: single siRNA against human genes, 20 nM siRNA (0.8 pmol per well). Time to read-out: 120 h (drug added 48 h after transfection, read 72 h later). Challenge: camptothecin 20 nM (about EC30) for 72 h; vehicle 0.1% DMSO in parallel plates. Detection: 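CellTiter-Glo ATP signal, scaled to control siRNA as percent viability; sensitisation given as log2 of untreated divided by camptothecin-treated viability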. Reading the numbers: log2 vehicle/camptothecin viability: higher = stronger sensitisation to camptothecin. Active means: 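Active genes have an RSA gene-level p-value below 0.001, computed from the ratios of their separate siRNAs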.
In all, the deposit lists about 26,000 reagents; shown is a random part of them. Of all reagents, 167 (0.63%) are marked active. 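Calls are per gene from RSA p-values that are not deposited; an individual active-marked siRNA can sensitise only weakly.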 The numbers tell different reagents against one gene apart. Not all columns of the deposit are shown.

gene	reagent	log2 vehicle/camptothecin viability	Outcome
NUAK1	1	-0.285	inactive
NUAK1	2	-0.0214	inactive
NUAK1	3	-0.305	inactive
NUAK1	4	0.315	inactive
PPP1R12C	1	0.276	inactive
PPP1R12C	2	-0.12	inactive
PPP1R12C	3	1.05	inactive
PPP1R12C	4	0.00758	inactive
TRAF5	1	-0.323	inactive
TRAF5	2	-0.235	inactive
TRAF5	3	-0.36	inactive
GPR35	1	-0.256	inactive
GPR35	2	-0.401	inactive
GPR35	3	-0.543	inactive
GPR35	4	-0.373	inactive
SLC6A15	1	0.174	inactive
SLC6A15	2	0.284	inactive
SLC6A15	3	0.0534	inactive
ABCB7	1	0.0461	inactive
ABCB7	2	-0.356	inactive
ABCB7	3	-0.493	inactive
CDKN2A	1	-0.33	inactive
CDKN2A	2	-0.392	inactive
CDKN2A	3	-0.767	inactive
CDKN2A	4	-0.261	inactive

5 entries from above in another layout.
| gene | reagent | log2 vehicle/camptothecin viability | Outcome |
| --- | --- | --- | --- |
| NUAK1 | 4 | 0.315 | inactive |
| PPP1R12C | 1 | 0.276 | inactive |
| PPP1R12C | 2 | -0.12 | inactive |
| PPP1R12C | 3 | 1.05 | inactive |
| PPP1R12C | 4 | 0.00758 | inactive |

The list goes on.
gene	reagent	log2 vehicle/camptothecin viability	Outcome
RRH	1	0.0734	inactive
RRH	2	-0.241	inactive
RRH	3	-0.309	inactive
RRH	4	0.425	inactive
SLC2A2	1	0.695	inactive
SLC2A2	2	0.215	inactive
SLC2A2	3	0.0644	inactive
SLC2A2	4	0.143	inactive
ATP2C2	1	-0.328	inactive
ATP2C2	2	-0.259	inactive
ATP2C2	3	-0.219	inactive
ATP2C2	4	1.15	inactive
OSM	1	-0.0449	inactive
OSM	2	0.133	inactive
OSM	3	-0.193	inactive
OSM	4	0.264	inactive
SIRPA	1	-0.0262	inactive
SIRPA	2	0.136	inactive
SIRPA	3	-0.12	inactive
SIRPA	4	-0.598	inactive
TXNL4B	1	-0.129	inactive
TXNL4B	2	-0.365	inactive
TXNL4B	3	0.104	inactive
TXNL4B	4	-0.36	inactive
